Test results published in patent publication US5945400A, “Nucleic acid-containing composition, preparation and use thereof” (Rhone-Poulenc Rorer SA, priority 1995, dated 1999).
At least one peptide structure holds a part that was inferred or is arguable (an end, a ring closure or a residue). No end group written: not given here.

Experiments:
[1] = test system: NIH3T3 cells; assay: Variation of compound/DNA ratio in the presence of 1.8x DOGS/DOPE, luciferase activity; assay type: cell-based; settings: 1.8x DOGS/DOPE (1/2)
[2] = test system: NIH 3T3 cells; assay: in vitro transfer of nucleic acid into NIH 3T3 cells with DOGS (luciferase activity); assay type: cell-based; settings: 0.25 μg compound
Procedure: (§1) 1. A mixture of 10 μl composed of the following is prepared:
0.5 μg of pCMV-luc plasma DNA, 0.25 μg of a compound according to the invention, in a buffer solution as identified,
40 mM dioctadecylamidoglycylspermine (DOGS) in charge ratios X as indicated in each of the tests. 2. 5·10^4 cells from the NIH3T3 lines are incubated with the above mixture at 37° C., under an atmosphere of 5% CO2 for 4 hours. The cells are then washed and recultured for 48 hours in a medium containing 10% serum (DMEM 10% SVF).
The cell carpet is then lysed in 50 μl of lysis buffer (Promega), recovered and then centrifuged at 20,000 g for 5 minutes.
The luciferase activity is measured on 4 μl of supernatant by adding 20 μl of substrate (Promega). The reading is taken on a LKB luminometer, cumulating the RLUs (relative light units) over 20 seconds.
3. Compaction in 150 mM NaCl, 10 mM HEPES* (* N-(2-hydroxyethyl)piperazine-N'-(2-ethanesulphonic acid) at pH 7.1
4. Compaction in 5% D-glucose, 150 mM NaCl, with 10 mM HEPES (pH of the compaction solution: 7.2)

[3] = test system: NIH3T3 cells; assay: Variation of compound/DNA ratio in the presence of PEI 800K, luciferase activity; assay type: cell-based
[4] = test system: tumours of type 3LL (Lewis Lung carcinoma); assay: In vivo transfer into tumour cells (3LL tumours), luciferase activity; design: species or system mice
Procedure: The corresponding tests are carried out on adult (>8 weeks) female C57/BL mice carrying tumours of type 3LL (Lewis Lung carcinoma) obtained by passing fragments of tumour from animal to animal, implanted under the skin of the flank.
As regards the solutions injected, they are prepared as follows: the DNA is first dissolved in the buffer, the peptide is then optionally added and, after 20 minutes, a solution of cationic lipids at high concentration (20 or 40 mM) is added to the mixture. After addition of all these products, the mixture contains, besides the DNA, the peptide and the cationic lipid, 150 mM NaCl, 5% D-glucose and 5 mM MES pH 6.2. In the case of the last two series with lipopolyamine C (RPR 120 535), the injection vehicle is 75 mM NaCl and 150 mM NaCl, 5% D-glucose respectively. The injection is made 20 to 30 minutes after the solution has been prepared.
Each transfecting composition (see Tables 9 and 10 for their respective specificities) is injected into the tumour 7 days after implantation, the mouse being anaesthetized with a ketamine 130 mg/kg+xylazine (4 mg/kg) mixture.
Two days after the injection, the tumour tissue is removed, weighed and then chopped up and ground in 500 μl of lysis buffer (Promega cell lysis buffer E153 A). After centrifugation (20,000 g for 10 minutes), 10 μl are taken and used to evaluate the luciferase activity by measuring the total light emission obtained after mixing with 50 μl of reagent (Promega luciferase assay substrate) in a Lumat LB 9501 luminometer (Berthold), with integration over 10 seconds.
The resulting activity is expressed as RLUs (relative light units) estimated in the entire tumour lysis supernatant, or as RLU per μg of DNA injected.

[5] = test system: NIH3T3 cells; assay: Transfection test in the presence of a neutral lipid (DOGS/DOPE), luciferase activity; assay type: cell-based; settings: DOGS/DOPE 1/2, 0.5 μg DNA, 0.25 μg compound, pH 7.4
[6] = test system: tumours induced by 3T3 HER2 cells; assay: In vivo injection of compacting peptides without lipofectant into tumours, luciferase activity; design: species or system mice; settings: peptide/DNA w/w 0.1; 10 μg DNA per tumour; no lipofectant; last series of Table 13 (buffer cell empty)
[7] = test system: NIH3T3 cells; assay: Variation of compound/DNA ratio in the presence of lipopolyamine A, luciferase activity; assay type: cell-based
Procedure: as §1
0.55 μg of pCNV-luc plasma DNA and a compound according to the invention, in the ratio indicated, in 150 mM NaCl buffer solution,
1,3-bis (3-aminopropylamino) -2-propyl (dioctadecyl-carbamoylmethoxy)acetate in the charge ratios indicated.
2. 5·10^4 cells from NIH3T3 lines are incubated with the above mixture at 37° C., under an atmosphere of 5% CO2 for 4 hours. The cells are then washed and recultured for 48 hours in a medium containing 10% serum (DMEM 10% SVF). The cell carpet is then lysed, 45 hours after the transfection, in 100 μl of lysis buffer (Promega), recovered and then centrifuged at 20,000 g for 5 minutes. The luciferase activity is measured on 10 μl of the supernatant, adding 50 μl of substrate (Promega). The reading is taken on a Berthold lumat 9501® luminometer, cumulating the RLUs (relative light units) over 10 seconds.

KTPKKAKKPKTPKKAKKP [H, LysThrProLysLysAlaLysLysProLysThrProLysLysAlaLysLysPro (COOH) (SEQ ID No.:4)]
luciferase activity ([1]; COMPOUND/DNA w/v 0.25): 13,000 RLU | luciferase activity ([1]; COMPOUND/DNA w/v 0.5): 11,000 RLU | luciferase activity ([1]; COMPOUND/DNA w/v 1): 14,100 RLU | luciferase activity ([1]; COMPOUND/DNA w/v 2): 16,500 RLU | luciferase activity ([2]; Table 1, DOGS/DNA charge ratio 0.8x, compaction in 150 mM NaCl, 10 mM HEPES pH 7.1, 0.5 μg pCMV-luc): 850 R.L.U | luciferase activity ([2]; Table 1, DOGS/DNA charge ratio 1.8x, 150 mM NaCl, 10 mM HEPES pH 7.1, 0.5 μg pCMV-luc): 23700 R.L.U | luciferase activity ([2]; Table 1, DOGS/DNA charge ratio 3x, 150 mM NaCl, 10 mM HEPES pH 7.1, 0.5 μg pCMV-luc): 21750 R.L.U | luciferase activity ([2]; Table 2, DOGS/DNA charge ratio 0.8x, 5% D-glucose, 150 mM NaCl, 10 mM HEPES pH 7.2, 0.5 μg DNA): 44000 R.L.U | luciferase activity ([2]; Table 2, DOGS/DNA charge ratio 1.8x, 5% D-glucose, 150 mM NaCl, 10 mM HEPES pH 7.2, 0.5 μg DNA): 156500 R.L.U | luciferase activity ([2]; Table 2, DOGS/DNA charge ratio 3x, 5% D-glucose, 150 mM NaCl, 10 mM HEPES pH 7.2, 0.5 μg DNA): 297500 R.L.U | luciferase activity ([3]; PEI 800K 6 eq, Compound/DNA ratio 0.5): 4.9 10^6 RLU | luciferase activity ([3]; PEI 800K 6 eq, Compound/DNA ratio 1): 7 10^6 RLU | luciferase activity ([3]; PEI 800K 6 eq, Compound/DNA ratio 2): 12.3 10^6 RLU | luciferase activity ([3]; PEI 800K 9 eq, Compound/DNA ratio 0.5): 8 10^6 RLU | luciferase activity ([3]; PEI 800K 9 eq, Compound/DNA ratio 1): 11.6 10^6 RLU | luciferase activity ([3]; PEI 800K 9 eq, Compound/DNA ratio 2): 4 10^6 RLU | luciferase activity ([3]; PEI 800K 12 eq, Compound/DNA ratio 0.5): 11.3 10^6 RLU | luciferase activity ([3]; PEI 800K 12 eq, Compound/DNA ratio 1): 17.1 10^6 RLU | luciferase activity ([3]; PEI 800K 12 eq, Compound/DNA ratio 2): 1.2 10^6 RLU | Result, RLU/tumour average ([4]; 7.5 μg DNA/tumour, 0.5 μg/μl, pept/DNA w/w 1, cationic lipid A 3 nmol/μg DNA): 383 313 RLU/tumour | Result, RLU/tumour average ([4]; 7.5 μg DNA/tumour, 0.5 μg/μl, pept/DNA w/w 1.5, cationic lipid A 3 nmol/μg DNA): 618 025 RLU/tumour | Result, RLU/tumour average ([4]; 10 μg DNA/tumour, 0.5 μg/μl, pept/DNA w/w 1.5, cationic lipid C 3 nmol/μg DNA): 679 258 RLU/tumour | Result, RLU/tumour average ([4]; 10 μg DNA/tumour, 0.5 μg/μl, pept/DNA w/w 1.5, cationic lipid D 3 nmol/μg DNA): 395 433 RLU/tumour | Result, RLU/tumour average ([4]; 15 μg DNA/tumour, 1 μg/μl, pept/DNA w/w 1, cationic lipid A 3 nmol/μg DNA): 1 017 372 RLU/tumour | Result, RLU/tumour average ([4]; 20 μg DNA/tumour, 0.5 μg/μl, pept/DNA w/w 1, cationic lipid C 4 nmol/μg DNA, vehicle 150 mM NaCl, 5% D-glucose): 1 348 233 RLU/tumour | Result, RLU/tumour average ([4]; 20 μg DNA/tumour, 2 μg/μl, pept/DNA w/w 1, cationic lipid A 1.8 nmol/μg DNA): 301 730 RLU/tumour | Result, RLU/tumour average ([4]; 30 μg DNA/tumour, 2 μg/μl, pept/DNA w/w 1, cationic lipid A 3 nmol/μg DNA): 1 340 460 RLU/tumour | Result, RLU/tumour average ([4]; Table 10, plasmid 10, 0.5 μg/μl, peptide/DNA w/w 1.5, Polyethyleneimine 50 K lactose 12 Eq): 14 152 RLU/tumour | Result, RLU/tumour average ([4]; Table 10, plasmid 10, 0.5 μg/μl, peptide/DNA w/w 1.5, Polyethyleneimine 50 K maltose 12 Eq): 12 942 RLU/tumour | Result, RLU/tumour average ([4]; Table 10, plasmid 40, 2 μg/μl, peptide/DNA w/w 1, Polyethyleneimine 800 K 18 Eq): 82 608 RLU/tumour | Result, RLU/tumour average ([4]; Table 10, plasmid 40, 2 μg/μl, peptide/DNA w/w 1, Polyethyleneimine 800 K 24 Eq): 45 750 RLU/tumour | Result, RLU/tumour average ([4]; Table 10, plasmid 50, 2 μg/μl, peptide/DNA w/w 1, Polyethyleneimine 800 K 9 Eq): 62 230 RLU/tumour | Result, RLU/tumour average ([4]; Table 10, plasmid 50, 2 μg/μl, peptide/DNA w/w 1, Polyethyleneimine 800 K 12 Eq): 72 700 RLU/tumour | luciferase activity ([5]; DOGS/DNA charge ratio 0.8x): 3175 RLU | luciferase activity ([5]; DOGS/DNA charge ratio 1x): 7410 RLU | luciferase activity ([5]; DOGS/DNA charge ratio 1.8x): 39500 RLU | Result, RLU/tumour average [6]: 3 420 432 RLU/tumour | luciferase activity ([7]; lipopolyamine A 1.8x, Compound/DNA ratio 0.5): 30.4 10^6 RLU | luciferase activity ([7]; lipopolyamine A 1.8x, Compound/DNA ratio 1): 32.7 10^6 RLU | luciferase activity ([7]; lipopolyamine A 1.8x, Compound/DNA ratio 2): 4.1 10^6 RLU | luciferase activity ([7]; lipopolyamine A 3x, Compound/DNA ratio 0.5): 41.5 10^6 RLU | luciferase activity ([7]; lipopolyamine A 3x, Compound/DNA ratio 1): 61.3 10^6 RLU | luciferase activity ([7]; lipopolyamine A 3x, Compound/DNA ratio 2): 16.6 10^6 RLU | luciferase activity ([7]; lipopolyamine A 6x, Compound/DNA ratio 0.5): 23.6 10^6 RLU | luciferase activity ([7]; lipopolyamine A 6x, Compound/DNA ratio 1): 22.3 10^6 RLU | luciferase activity ([7]; lipopolyamine A 6x, Compound/DNA ratio 2): 15.6 10^6 RLU
